Experiment [1] has as its target T1, in vitro 35S-labeled full GILZ (full-length mouse GILZ, in vitro translated) (mouse) (UniProt Q9Z2S7).
T1 sequence ([35S]-Methionine label, looked up): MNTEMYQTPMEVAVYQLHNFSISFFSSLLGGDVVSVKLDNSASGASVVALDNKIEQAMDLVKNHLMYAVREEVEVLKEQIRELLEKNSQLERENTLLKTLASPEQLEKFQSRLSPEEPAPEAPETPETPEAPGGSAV
Kind of experiment: GST pull-down of in vitro 35S-labeled protein.

In experiment [2] the target is T2, N87A-GILZ, full mouse GILZ in which an Asparagine is mutated in Alanine, in vitro 35S-labeled (mouse) (UniProt Q9Z2S7).
T2 sequence ([35S]-Methionine label, looked up): T1 sequence ([35S]-Methionine label, looked up) with N87A
Kind of experiment: GST pull-down of in vitro 35S-labeled protein.

In experiment [3] the target is T3, GILZ, endogenous, in whole cell lysates of murine thymocytes (DEX-treated or untreated) (mouse) (UniProt Q9Z2S7).
T3 sequence (looked up): T1 sequence ([35S]-Methionine label, looked up)
As to the kind of experiment: GST pull-down from thymocyte whole cell lysates (DEX treated or untreated), Western blot with α-GILZ.

Experiment [4] deals with T3, GILZ, endogenous, in whole cell lysates of murine thymocytes (DEX-treated or untreated) (mouse). Kind of experiment: GST pull-down, Western blot. On the technique in general: In western blotting, separated proteins are transferred to a membrane and probed.
Experiment [5] deals with Raf (Raf-1), endogenous, in extracts of mouse cells (3DO cells, thymocytes, T cells of spleen and lymph nodes) (mouse) (UniProt Q99N57). Kind of experiment: GST pull-down from 3DO cell extracts (DEX treated or untreated), Western blot.
Experiment [6] shares this target. Kind of experiment: GST pull-down from 3DO whole cell extracts, Western blot.
Experiment [7] has the same target. As to the kind of experiment: co-immunoprecipitation from murine thymocyte lysates with α-Raf, Western blot with α-GILZ.
Experiment [8] addresses human Raf expressed from pUSEamp-Raf in COS-7 cells (human) (UniProt P04049). As to the kind of experiment: co-immunoprecipitation from transfected COS-7 lysates, Western blot.
The target is the same in experiment [9]. Kind of experiment: co-immunoprecipitation from transfected COS-7 lysates with α-Myc, Western blot with α-Raf.
The target in experiment [10] is GST-Raf-RBD, GST fusion protein comprising the Ras Binding Domain of human Raf (Raf-RBD, residues 1-149) (human) (UniProt P04049). As to the kind of experiment: competition in GST pull-down: increasing amount of GILZ against Ras of COS-7 extracts on GST-Raf-RBD; Western blot.

Where a chain is given by its changes, count along the chain named. Results are given in words; binding and its absence hold for the method and conditions named. In cells and extracts the contact can be indirect. Some entries that bind do so weakly or less than the wild type. For some of these results: Where a sequence is shown, tags or fusion partners need not be part of it.

On to “GST-Raf-RBD, GST fusion protein comprising the Ras Binding Domain of human Raf (Raf-RBD, residues 1-149) (from UniProt P04049 1-149)”, for which the binding result in [1], in experiment [2], in [3] and in [4] was “binds” throughout.

B1: Glutathione S-transferase GILZ fusion protein (GST-GILZ), containing entire mouse GILZ (other, UniProt Q9Z2S7 1-137, looked up)
chain: T1 sequence ([35S]-Methionine label, looked up)
notes: range 1-137; Immobilised on glutathione Sepharose beads; Prepared as in Ayroldi E et al., 2001; not shown: Glutathione S-transferase (GST) encoded by the pGEX-4T2 plasmid (Pharmacia)
Turning to B1, the binding entry in [5] and in [6] was “binds” each time.

B2: GILZ, endogenous, in whole cell lysates of murine thymocytes (DEX-treated or untreated) (other, mouse, UniProt Q9Z2S7 1-137, looked up)
chain: T1 sequence ([35S]-Methionine label, looked up)
notes: also called mGILZ
As to B2, in experiment [7], the binding result was “binds”.

B3: Myc-tagged GILZ (full-length mouse GILZ expressed from pcDNA3.1/Myc-His in COS-7 cells) (protein, UniProt Q9Z2S7 1-137, looked up, not shown: small tags and cut ends)
chain: T1 sequence ([35S]-Methionine label, looked up)
Take B3: the binding entry in experiment [8] and in [9] was “binds” each time.

B4: E. coli expressed mouse GILZ (protein, UniProt Q9Z2S7 1-137, looked up)
chain: T1 sequence ([35S]-Methionine label, looked up)
In the case of B4, in experiment [10], the binding result was “binds”.

The values are drawn from patent US20050164906A1 (APPLIED RESEARCH SYSTEMS ARS HOLDING N V, published 2005).
